Results are given in words; binding and its absence hold for the method and conditions named. Binding seen in cells or lysates may run through a third protein. Binding can be weak; no strength is given.

The chains behind the UniProt entries cited, without tags or fusion partners. Where a name states a change or a piece, a line headed by the entry shows the natural chain unless it says otherwise.
UniProt I3L1U7: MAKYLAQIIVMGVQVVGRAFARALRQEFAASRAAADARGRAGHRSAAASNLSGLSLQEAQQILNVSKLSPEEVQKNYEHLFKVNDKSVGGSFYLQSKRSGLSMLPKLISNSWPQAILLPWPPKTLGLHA

The assay has as its target hexahistidine tagged Magmas-2 (human) (UniProt I3L1U7). Put plainly: pull-down; hexahistidine tagged Magmas variants on Ni-NTA beads; lysate of 2 mg HEK293T mitochondria in 25 mM HEPES-KOH pH 7.5, 80 mM KCl, 5 mM EDTA, 20 mM imidazole, 10% glycerol, 1 mM PMSF, 0.5% NP-40; 12 h, 4 °C; washes with 0.25% NP-40; immunoblot; only the target purified. In general terms: In western blotting, separated proteins are transferred to a membrane and probed.

B1: Tim23 (human) (protein, UniProt O14925 1-209)
chain: MEGGGGSGNKTTGGLAGFFGAGGAGYSHADLAGVPLTGMNPLSPYLNVDPRYLVQDTDEFILPTGANKTRGRFELAFFTIGGCCMTGAAFGAMNGLRLGLKETQNMAWSKPRNVQILNMVTRQGALWANTLGSLALLYSAFGVIIEKTRGAEDDLNTVAAGTMTGMLYKCTGGLRGIARGGLTGLTLTSLYALYNNWEHMKGSLLQQSL
With B1, the binding entry is “binds”.

The record behind these values is paper PMC8605242.
